Experimental data published in publication PMC2890584.
No constants are given. Whether binding was seen depends on the method and setting. In cells and extracts the contact can be indirect. Some binding calls cover weakened binding; strength is not graded here.

By UniProt entry, the sequences of proteins in these tests, tags left out.
UniProt P42866: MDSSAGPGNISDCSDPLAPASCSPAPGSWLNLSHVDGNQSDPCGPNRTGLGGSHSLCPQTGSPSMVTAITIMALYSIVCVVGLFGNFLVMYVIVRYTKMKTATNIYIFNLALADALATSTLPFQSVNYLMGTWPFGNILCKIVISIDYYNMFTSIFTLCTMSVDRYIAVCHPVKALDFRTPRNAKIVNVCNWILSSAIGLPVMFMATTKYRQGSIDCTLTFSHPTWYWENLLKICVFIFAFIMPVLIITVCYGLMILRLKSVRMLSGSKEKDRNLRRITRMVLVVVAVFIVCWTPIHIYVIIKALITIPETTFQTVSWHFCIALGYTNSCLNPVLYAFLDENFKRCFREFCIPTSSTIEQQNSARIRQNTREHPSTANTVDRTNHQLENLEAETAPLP
UniProt P08752: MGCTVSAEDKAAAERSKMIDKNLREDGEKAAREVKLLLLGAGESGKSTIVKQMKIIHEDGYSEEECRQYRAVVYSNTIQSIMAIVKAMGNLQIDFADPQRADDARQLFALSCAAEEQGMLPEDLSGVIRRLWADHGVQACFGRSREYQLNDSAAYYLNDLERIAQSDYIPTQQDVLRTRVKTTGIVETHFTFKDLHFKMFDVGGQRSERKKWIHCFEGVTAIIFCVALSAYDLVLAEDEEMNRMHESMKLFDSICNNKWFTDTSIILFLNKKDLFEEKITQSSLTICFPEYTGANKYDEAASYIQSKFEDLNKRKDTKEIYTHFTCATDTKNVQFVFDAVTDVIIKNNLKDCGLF

What was measured:
[1] = biological target: Mu-opioid receptor (mouse (endogenous in PAG synaptosomes)) (UniProt P42866); assay: co-IP; MOR or RGSZ2 immunoprecipitated with biotinylated affinity-purified IgGs from sonicated PAG synaptosomal membranes (50 mM Tris-HCl pH 7.7, 50 mM NaCl, 1% Nonidet P-40) of mice at intervals after icv 10 nmol morphine; some mice given LNNA or naltrindole before morphine; co-precipitated proteins detected by western blot
[2] = biological target: T1, RGSZ2 (mouse (endogenous in PAG synaptosomes)) (UniProt Q9QZB0); assay: as above
T1 sequence: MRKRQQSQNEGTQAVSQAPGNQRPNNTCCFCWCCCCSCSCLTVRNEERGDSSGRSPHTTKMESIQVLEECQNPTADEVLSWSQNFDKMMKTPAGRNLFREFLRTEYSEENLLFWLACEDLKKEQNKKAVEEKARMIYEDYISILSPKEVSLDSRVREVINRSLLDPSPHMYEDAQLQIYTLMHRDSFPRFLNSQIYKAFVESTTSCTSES

Substance: Gαi2 (from UniProt P08752 1-355)
- binding [1]: binds
- binding [2]: binds
